Test results from publication PMC3681753.

Chains of the proteins cited; added tags and fusions are not shown. Lines headed by an entry give the natural chain unless they say otherwise; changes in a name come on top.
UniProt Q14653: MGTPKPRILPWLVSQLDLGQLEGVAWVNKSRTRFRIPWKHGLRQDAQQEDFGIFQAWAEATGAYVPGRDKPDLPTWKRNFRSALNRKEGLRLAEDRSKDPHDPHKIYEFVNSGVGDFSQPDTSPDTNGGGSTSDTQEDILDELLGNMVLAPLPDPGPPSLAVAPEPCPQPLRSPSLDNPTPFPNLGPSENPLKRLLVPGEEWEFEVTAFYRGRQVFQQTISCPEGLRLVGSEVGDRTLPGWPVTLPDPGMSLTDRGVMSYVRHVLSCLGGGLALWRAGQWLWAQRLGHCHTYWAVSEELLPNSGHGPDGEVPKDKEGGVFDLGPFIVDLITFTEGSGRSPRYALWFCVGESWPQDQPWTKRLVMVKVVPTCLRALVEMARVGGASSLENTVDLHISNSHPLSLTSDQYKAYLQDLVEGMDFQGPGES
UniProt P35222: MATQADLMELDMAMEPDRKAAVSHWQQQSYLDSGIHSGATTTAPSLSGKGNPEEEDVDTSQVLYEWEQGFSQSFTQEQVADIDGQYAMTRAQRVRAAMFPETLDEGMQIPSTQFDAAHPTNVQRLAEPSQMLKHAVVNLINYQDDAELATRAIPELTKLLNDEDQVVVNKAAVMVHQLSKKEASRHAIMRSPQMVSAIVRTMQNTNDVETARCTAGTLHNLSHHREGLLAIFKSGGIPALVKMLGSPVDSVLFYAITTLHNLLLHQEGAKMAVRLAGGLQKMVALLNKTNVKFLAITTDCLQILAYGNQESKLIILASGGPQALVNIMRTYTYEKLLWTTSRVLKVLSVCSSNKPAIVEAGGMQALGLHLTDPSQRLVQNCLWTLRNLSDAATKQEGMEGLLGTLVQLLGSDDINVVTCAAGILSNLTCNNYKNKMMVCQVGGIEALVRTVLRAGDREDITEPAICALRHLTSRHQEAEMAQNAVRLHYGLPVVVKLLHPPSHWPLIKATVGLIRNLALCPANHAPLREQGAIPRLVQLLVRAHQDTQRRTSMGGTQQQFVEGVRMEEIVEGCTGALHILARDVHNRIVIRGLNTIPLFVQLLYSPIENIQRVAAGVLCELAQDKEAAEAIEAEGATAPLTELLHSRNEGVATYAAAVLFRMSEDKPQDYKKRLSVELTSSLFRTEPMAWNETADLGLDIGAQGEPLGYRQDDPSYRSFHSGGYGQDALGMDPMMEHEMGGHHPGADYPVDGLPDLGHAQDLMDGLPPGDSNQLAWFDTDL

Molecular target: FLAG-IRF3(5D), constitutively active phosphomimetic mutant of IRF3 (human) (UniProt Q14653)
Assay: co-IP; HEK 293T co-transfected 48 h with CTNNB1 and FLAG-tagged bait; extracts made after 16 h of SeV infection; immunoprecipitation against FLAG; blot with anti-FLAG and anti-CTNNB1

exogenous CTNNB1 (β-catenin), untagged (from UniProt P35222 1-781)
binding: binds

Results are given in words; binding and its absence hold for the method and conditions named. In cells and extracts the contact can be indirect. Binding calls can cover weak binding; strength is not graded here.
